No constants are given. Whether binding was seen depends on the method and setting. Binding seen in cells or lysates may run through a third protein. A yes stands for co-enrichment or nearness to the bait. Other partners may have been found.

For this experiment, the target named is TAP-tagged Wdr70 (fission yeast) (fission yeast (S. pombe)). The experiment in a line: affinity purification with mass spectrometry.

B1: Pcu4 (Cullin 4 homolog) (protein, UniProt O14122 1-734)
chain: MPPEAKRIVVKGFDPRKSRQRQETYYVTMIDRLNMALQVVMAGLGLKTGYQELYSGVENLTRADQASRCFNILQHHMSSGIQLLKDSAESFIQLEGTETDTNACTVVVGCWNKWLERVEIVQNIFYYMDKTFLSHHPDYPTIEELSLSLFREKLMAVKNIQIPFLNSLLQSFENLHSSKSTDHAYLQDAMLMLHRTEMYSSVFVPMYLVMLSRFYDTESSQKIQELPLEEYLEYAMSSLEREDAYVEKFDIVRDKKSIRETVQRCLITSHLDTLTKGISQFIEKRDAHSCKLLYALLQFNHETEYLIQPWSDCLVDVGFKLVNDESKDDTLVQELLSFHKFLQVVVDESFLHDETLSYAMRKAFETFINGAKGSQREAPARLIAKYIDYLLRVGEQASGGKPLKEVFSEILDLFRYIASKDIFEAYYKLDIAKRLLLNKSASAQNELMLLDMLKKTCGSQFTHSLEGMFRDVNISKEFTSSFRHSKAAHNLHRDLYVNVLSQAYWPSYPESHIRLPDDMQQDLDCFEKFYLSKQVGKKISWYASLGHCIVKARFPLGNKELSISLFQACVLLQFNNCLGGEGISYQDLKKSTELSDIDLTRTLQSLSCARIRPLVMVPKSKKPSPDTMFYVNEKFTDKLYRVKINQIYLKEERQENSDVQEQVVRDRQFELQASIVRVMKQKEKMKHDDLVQYVINNVKDRGIPLVSDVKTAIEKLLEKEYLEREDNDIYTYVT
As for B1, the binding entry is “binds”.

B2: Rpn13b (fission yeast ADRM1 homolog) (protein, UniProt Q9USM1 1-388)
chain: MESVFGRVRNETSERGKYGLVSVKAGKLQRKPGTNILQADHRKGVIYMQMASDELLHFYWKERARVSREVEDDYIIFPEEAEFIKIDECTTGRVYALKFKSSSQIHFYWMQEYSDEKDKETASLINQLIADPVNTTRTINSHNNSSSRGTDDSSTSQLLQLFGAASQDALQDFNWEVLSPTAEAPAILPRFPNVNESANMYRASSESNLNGPHATAGENGEDHEEATASPLDENIDYTHSRTLELLEQLQPLILNETTFVEPFSIDRESHRVITHPRVYPKIFPHSPSDLLRISGRAELSENRDFFKHLSSLMEAVAKPESESLREICNLSLEQVQSASGAELFLHALYDRLVNEGVIVISHITQEGSDGEVEEEGDVEMRESNEKDE
For B2, the binding entry is reported as “binds”.

Values taken from article doi:10.1101/2022.07.21.500952.
